Results deposited as PubChem BioAssay AID504774 (Drosophila RNAi Screening Center, 2011).

- Aim: 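Fly genes whose loss alters survival after alkylation damage to DNA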 (primary screen)
- Cell system: Drosophila Kc167 cells
- Reagents: long dsRNA against Drosophila genes, about 0.25 µg dsRNA per well
- Timing: about 6 days: 3 days knock-down, then 3 days with or without MMS
- Challenge: methyl methanesulphonate 0.004% (w/v) for 3 days after knock-down
- Measurement: 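ATP-dependent luminescence as a measure of live cells in MMS-exposed wells, quantile normalised within each plate, with replicate values also given as a mean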
- Scale: mean viability with MMS: higher = more surviving cells after MMS
The deposit covers about 23,000 reagents; this is an unselected part of those that have a named target and a result. 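Values are quantile-normalised luminescence on an arbitrary scale; higher means more cells surviving MMS.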 Names joined by + are all predicted targets of the reagent. Not all columns of the deposit are shown.

no.	predicted target	DRSC id	mean viability with MMS
1	karr	DRSC20681	3.57e6
2	Nos	DRSC03381	3.63e6
3	Ance-3	DRSC02648	3.76e6
4	Ance-3	DRSC02649	3.52e6
5	Pex11c	DRSC14677	3.62e6
6	CG12818	DRSC14556	3.61e6
7	CG15027	DRSC19608	3.48e6
8	Sirup	DRSC03031	3.66e6
9	CG32755	DRSC18397	3.48e6
10	Glut3	DRSC16681	3.53e6
11	cype	DRSC02356	3.40e6
12	Syx4	DRSC18586	3.47e6
13	GstE7	DRSC06677	3.56e6
14	GMF	DRSC01928	3.60e6
15	Nbr	DRSC03166	3.53e6
16	CG30043	DRSC06285	3.51e6
17	CG33998	DRSC05747	3.57e6
18	Ge-1	DRSC02938	3.17e6
19	CG31313	DRSC13044	3.50e6
20	CG31360	DRSC13255	3.62e6
21	CheA46a	DRSC05184	3.48e6
22	conu	DRSC07810	3.46e6
23	pHCl-1	DRSC09401	3.81e6
24	pHCl-1	DRSC09991	3.59e6
25	pHCl-1	DRSC10589	3.62e6
26	CG7695	DRSC16289	3.54e6
27	CG32069 + Blos2	DRSC10621	3.75e6
28	CalpB	DRSC11109	3.47e6

No new results follow: an excerpt of the list.
no.	predicted target	DRSC id	mean viability with MMS
9	CG32755	DRSC18397	3.48e6
10	Glut3	DRSC16681	3.53e6
11	cype	DRSC02356	3.40e6
